Measured values from publication doi:10.1101/2022.11.16.516705.
Results are given in words; binding and its absence hold for the method and conditions named. Binding seen in cells or lysates may run through a third protein. Some binding calls cover weakened binding; strength is not graded here.

Protein sequences, listed by entry. Tags and fused reporters are not part of them.
UniProt Q96P20: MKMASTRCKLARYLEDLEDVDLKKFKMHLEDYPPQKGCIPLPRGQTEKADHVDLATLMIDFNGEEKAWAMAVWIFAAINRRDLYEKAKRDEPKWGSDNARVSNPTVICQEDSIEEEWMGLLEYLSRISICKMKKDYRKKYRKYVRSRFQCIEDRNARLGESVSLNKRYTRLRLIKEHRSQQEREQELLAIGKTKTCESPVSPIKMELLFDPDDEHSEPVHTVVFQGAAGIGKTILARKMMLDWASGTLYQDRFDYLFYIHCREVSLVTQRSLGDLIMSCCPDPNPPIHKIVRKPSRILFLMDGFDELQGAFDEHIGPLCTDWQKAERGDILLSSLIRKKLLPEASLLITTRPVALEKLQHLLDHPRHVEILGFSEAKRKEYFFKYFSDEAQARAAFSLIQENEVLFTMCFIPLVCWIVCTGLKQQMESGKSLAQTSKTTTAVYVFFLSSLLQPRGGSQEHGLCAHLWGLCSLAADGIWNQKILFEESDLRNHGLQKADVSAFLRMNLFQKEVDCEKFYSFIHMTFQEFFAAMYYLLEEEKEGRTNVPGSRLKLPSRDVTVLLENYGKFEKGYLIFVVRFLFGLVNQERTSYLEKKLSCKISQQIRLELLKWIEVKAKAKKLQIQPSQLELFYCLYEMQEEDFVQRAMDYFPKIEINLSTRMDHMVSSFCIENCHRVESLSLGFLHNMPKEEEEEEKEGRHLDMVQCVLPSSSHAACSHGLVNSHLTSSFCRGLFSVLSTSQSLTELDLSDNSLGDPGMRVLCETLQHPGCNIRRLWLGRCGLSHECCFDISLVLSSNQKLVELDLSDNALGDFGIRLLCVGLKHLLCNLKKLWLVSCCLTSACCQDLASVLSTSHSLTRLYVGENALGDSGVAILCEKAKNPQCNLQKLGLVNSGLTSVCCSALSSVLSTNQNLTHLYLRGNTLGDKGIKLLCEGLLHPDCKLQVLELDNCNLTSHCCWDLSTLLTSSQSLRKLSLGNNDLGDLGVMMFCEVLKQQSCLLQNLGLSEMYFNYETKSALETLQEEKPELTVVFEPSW
UniProt P11142: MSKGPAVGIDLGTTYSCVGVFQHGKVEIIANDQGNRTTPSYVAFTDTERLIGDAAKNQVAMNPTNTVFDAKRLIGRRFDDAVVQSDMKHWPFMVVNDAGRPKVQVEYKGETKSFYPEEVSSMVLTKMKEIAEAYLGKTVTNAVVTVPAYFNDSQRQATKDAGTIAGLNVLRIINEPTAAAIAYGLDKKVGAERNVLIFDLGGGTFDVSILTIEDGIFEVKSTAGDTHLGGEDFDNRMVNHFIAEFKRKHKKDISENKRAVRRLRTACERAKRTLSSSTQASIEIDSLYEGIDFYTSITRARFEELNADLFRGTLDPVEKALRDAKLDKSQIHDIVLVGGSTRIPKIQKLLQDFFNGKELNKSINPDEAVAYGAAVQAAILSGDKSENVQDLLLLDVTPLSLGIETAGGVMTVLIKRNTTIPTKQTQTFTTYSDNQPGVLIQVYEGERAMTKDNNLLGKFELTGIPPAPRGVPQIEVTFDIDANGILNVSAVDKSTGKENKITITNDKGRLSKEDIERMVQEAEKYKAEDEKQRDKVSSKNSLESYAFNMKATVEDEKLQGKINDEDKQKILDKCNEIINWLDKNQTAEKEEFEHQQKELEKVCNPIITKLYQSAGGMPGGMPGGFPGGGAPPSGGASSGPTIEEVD

Experiments:
[1] = biological target: endogenous NLRP3 (human (endogenous in THP1)) (UniProt Q96P20); experiment: co-IP
[2] = biological target: GFP-tagged wild type NLRP3 (UniProt Q96P20); experiment: co-IP

binding [1] | binding [2] | Substance
binds |  | HSC70 (HSPA8), endogenous in THP1 cells (from UniProt P11142 1-646)
 | binds | HSC70 (HSPA8), endogenous in HEK293T cells (from UniProt P11142 1-646)
